Record: PubChem BioAssay AID504744 (Drosophila RNAi Screening Center, 2011)

Test: 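Find genes whose loss alters insulin-driven dAkt phosphorylation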 (primary screen)
System: Drosophila Kc167 cells
Reagents: long dsRNA against Drosophila genes, 250 ng dsRNA per well of a 384-well plate
Timing: 3 days of knock-down, then overnight serum-free starvation before stimulation
Challenge: bovine insulin at 387 nM for 10 minutes after 12 h without serum
Read-out: 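Per-well phospho-dAkt level from an in-cell fluorescent antibody stain, divided by a DNA-dye signal; log2 residuals turned into z-scores that take cell number into account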
Call rule: 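Hit in the insulin screen when the two-replicate mean z-score is more extreme than plus or minus 2.5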
In all, the deposit lists about 23,000 reagents; shown is an unselected part of those that have a named target and a result. Of all reagents, 98 (0.43%) got an active call. 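Only hit calls are given; the phospho-dAkt signals, z-scores and hit direction were not deposited.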 Names joined by + are all predicted targets of the reagent.

target	DRSC id	activity call
CG10834	DRSC03693	inactive
Polr3H	DRSC10817	inactive
Grx1	DRSC10727	inactive
pes	DRSC03033	inactive
CG7142	DRSC16204	inactive
Obp57c	DRSC06384	inactive
MFS16	DRSC04051	inactive
fs(1)M3	DRSC18381	inactive
Nup205	DRSC19432	inactive
GalT1	DRSC22238	inactive
CG5612	DRSC15844	inactive
CG32755	DRSC18397	inactive
CG8010	DRSC20072	inactive
Roc2	DRSC07313	inactive
Or74a	DRSC11245	inactive
CG5567	DRSC10517	inactive
Cpr47Ec	DRSC07332	inactive
CG42369	DRSC03244	inactive
Cndp2	DRSC04873	inactive
pigs	DRSC17472	inactive
pigs	DRSC18334	inactive
pigs	DRSC18335	inactive
Fer1HCH	DRSC16671	inactive
CG5194	DRSC10492	inactive
CG7362	DRSC16236	inactive
Ugt307A1	DRSC02138	inactive
CG12883	DRSC14570	inactive
CG32037	DRSC10363	inactive
Osi18	DRSC12181	inactive
Lamtor1	DRSC10183	inactive
CG15369	DRSC18041	inactive
CG9184	DRSC08636	inactive
CG9184	DRSC22184	inactive
Pfk	DRSC07506	inactive
CG12853	DRSC06193	inactive
Spps	DRSC15856	inactive
CG2121	DRSC06819	inactive
CG2121	DRSC06820	inactive
Fic	DRSC03247	inactive
ubl	DRSC04998	inactive
Oatp33Eb	DRSC02955	inactive
CG13315	DRSC09986	inactive
CG3777	DRSC18489	inactive
nocte	DRSC18123	inactive
CG13155	DRSC06280	inactive
FucT6	DRSC19848	inactive
sncRNA:430e + His2A:CG33859 + His2A:CG33817 + 37 more	DRSC21264	inactive
alpha-Est8	DRSC12620	inactive
betaTub56D	DRSC07583	inactive
AstC-R1	DRSC10799	inactive
CG14511	DRSC14863	inactive
CG7509	DRSC08596	inactive
CG13313	DRSC09984	inactive
CG9759	DRSC16558	inactive
Hpr1	DRSC12296	inactive
nito	DRSC05943	inactive
Nup154	DRSC03384	inactive
P5CDh1	DRSC11801	inactive
MKP-4	DRSC19567	inactive
CG1889 + CG43386	DRSC17979	inactive
CG7465	DRSC08592	inactive
CG7465	DRSC22320	inactive
caps	DRSC11333	inactive
caps	DRSC22224	inactive
Cyp4p2	DRSC07373	inactive
Dic4	DRSC10317	inactive
CG43394	DRSC01013	inactive
CG42299 + CG42300	DRSC19680	inactive
CG42299 + CG42300	DRSC19815	inactive
Gli	DRSC03332	inactive
CG15040	DRSC19616	inactive
CG15040	DRSC21482	inactive
Naam	DRSC16252	inactive
ccb	DRSC20501	inactive
CG2017	DRSC12293	inactive
mRpL46	DRSC08391	inactive
Lcp1Psi	DRSC05105	inactive
Elo68beta	DRSC09860	inactive
CG34230	DRSC05317	inactive
ScsbetaG	DRSC11294	inactive
CG13564	DRSC04201	inactive
CG14316	DRSC14795	inactive
inaC	DRSC07632	inactive
CG40053 (retired record)	DRSC20833	inactive
ric8b + ric8a	DRSC18104	inactive
hts	DRSC07629	inactive
CG32074	DRSC22246	inactive
ddbt	DRSC07869	inactive
eIF4H2	DRSC14582	inactive
Cpr60D	DRSC04492	inactive
CG8508	DRSC16436	inactive
Pfdn5	DRSC16183	inactive
CG12099	DRSC08253	inactive
Ggamma30A	DRSC02715	inactive
Ggamma30A	DRSC03331	inactive
ATPsynbetaL	DRSC10503	inactive
Chchd3	DRSC16981	inactive
Mal-B1	DRSC02416	inactive
Myo95E	DRSC15821	inactive
Gpb5	DRSC21241	inactive
Smg5	DRSC03124	inactive
hop	DRSC20340	inactive
UQCR-C1	DRSC15508	inactive
ND-B15	DRSC06199	inactive
IntS8	DRSC07417	inactive
CG11498	DRSC14315	inactive
mRpL1	DRSC16251	inactive

Targets above whose gene name begins with G or g:
target	DRSC id	activity call
Grx1	DRSC10727	inactive
GalT1	DRSC22238	inactive
Gli	DRSC03332	inactive
Ggamma30A	DRSC02715	inactive
Ggamma30A	DRSC03331	inactive
Gpb5	DRSC21241	inactive
